Test results as given in publication PMC6535076.

How the values were obtained:
Test in all cases: photoaffinity crosslinking
[1] = target: T1, HMGB1 (calf (thymus)) (UniProt P10103); conditions: 300 nM protein, 100 nM DNA, EDTA, UV photo-crosslinking, 100 nM 5'-32P photoreactive DNA, EDTA present, Pol beta carried over from probe synthesis, SDS-PAGE, binding buffer, native protein, label: 5'-32P on strand 1, letters put together from the description
T1 sequence (looked up, limits assumed): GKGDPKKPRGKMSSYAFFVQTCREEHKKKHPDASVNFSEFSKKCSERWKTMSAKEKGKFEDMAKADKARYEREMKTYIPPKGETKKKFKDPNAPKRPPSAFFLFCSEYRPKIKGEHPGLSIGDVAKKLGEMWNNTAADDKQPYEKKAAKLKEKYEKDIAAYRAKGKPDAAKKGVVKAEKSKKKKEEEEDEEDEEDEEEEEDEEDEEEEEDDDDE

[2] = target: PARP1 (human) (UniProt P09874); conditions: 100 nM protein, 100 nM DNA, EDTA, strand 1 3'-terminal C is FAP-dCMP, UV photo-crosslinking, 100 nM 5'-32P photoreactive DNA, EDTA present, Pol beta carried over from probe synthesis, SDS-PAGE, binding buffer, recombinant protein, label: 5'-32P on strand 1, letters put together from the description
[3] = system: Ku antigen (Ku70/Ku80) (human (HeLa cells)); conditions: 100 nM protein, 100 nM DNA, EDTA, UV photo-crosslinking, 100 nM 5'-32P photoreactive DNA, EDTA present, Pol beta carried over from probe synthesis, SDS-PAGE, binding buffer, native protein, label: 5'-32P on strand 1, letters put together from the description
[4] = target: DNA polymerase beta (human) (UniProt P06746); conditions: 200 nM protein, 100 nM DNA, EDTA, UV photo-crosslinking, 100 nM 5'-32P photoreactive DNA, EDTA present, Pol beta carried over from probe synthesis, SDS-PAGE, binding buffer, recombinant protein, label: 5'-32P on strand 1, letters put together from the description
[5] = target: FEN1 (human) (UniProt P39748); conditions: 100 nM protein, 100 nM DNA, EDTA; strand 1 3'-terminal C is FAP-dCMP; UV photo-crosslinking, 100 nM 5'-32P photoreactive DNA, EDTA present, Pol beta carried over from probe synthesis, SDS-PAGE; binding buffer; recombinant protein; label: 5'-32P on strand 1; letters put together from the description
[6] = target: T2, PARP3 (human) (UniProt Q9Y6F1); conditions: 300 nM protein per legend, 100 nM DNA, EDTA, considerably lower than PARP1 and PARP2; strand 1 3'-terminal C is FAP-dCMP (photoreactive exo-N-substituted dC); strand 2 carries 5'-dRP (phosphate-linked, from Ung-treated 5'-pU); UV photo-crosslinking, 100 nM 5'-32P photoreactive DNA, EDTA present, Pol beta carried over from probe synthesis, SDS-PAGE; binding buffer; recombinant protein; label: 5'-32P on strand 1; letters put together from the description
T2 sequence (looked up, limits assumed): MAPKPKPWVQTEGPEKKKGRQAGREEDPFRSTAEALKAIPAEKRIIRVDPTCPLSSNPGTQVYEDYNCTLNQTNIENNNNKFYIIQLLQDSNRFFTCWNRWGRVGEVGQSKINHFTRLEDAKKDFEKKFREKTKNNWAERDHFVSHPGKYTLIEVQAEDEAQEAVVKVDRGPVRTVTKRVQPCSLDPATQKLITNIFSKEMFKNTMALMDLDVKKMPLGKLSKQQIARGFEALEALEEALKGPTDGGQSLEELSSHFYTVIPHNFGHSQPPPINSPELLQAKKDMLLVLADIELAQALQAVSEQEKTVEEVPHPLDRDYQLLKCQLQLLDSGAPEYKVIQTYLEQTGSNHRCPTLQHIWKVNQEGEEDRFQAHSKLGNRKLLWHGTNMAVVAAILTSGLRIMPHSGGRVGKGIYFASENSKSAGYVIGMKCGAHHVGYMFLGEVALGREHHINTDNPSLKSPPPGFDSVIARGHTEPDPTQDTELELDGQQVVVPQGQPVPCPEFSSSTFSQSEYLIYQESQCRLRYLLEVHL

[7] = strand 1 3'-terminal C is FAP-dCMP, strand 2 carries 5'-phospho-diethylene glycol phosphate (p-DEG)
[8] = strand 1 3'-terminal C is FAP-dCMP
[9] = strand 1 3'-terminal C is FAP-dCMP (photoreactive exo-N-substituted dC), strand 2 carries 5'-dRP (phosphate-linked, from Ung-treated 5'-pU)

“GGCGACTAAGCCGGGC / AACGCCAGGGCCTCCC / GGGAGGCCCTGGCGTTGCCCGGCTTAGTCGCC [Pho-pDEG]”: binds more weakly [1, 7]; binds ([2]; strand 2 carries 5'-phospho-diethylene glycol phosphate (p-DEG)); binds [3, 7]. “GGCGACTAAGCCGGGC / AACGCCAGGGCCTCCC / GGGAGGCCCTGGCGTTGCCCGGCTTAGTCGCC [Pho-pDEG]”: binds [4, 7].
“GGCGACTAAGCCGGGC / GATAACAACGCCAGGGCCTCCC / GGGAGGCCCTGGCGTTGCCCGGCTTAGTCGCC [Pho-Flap]”: binds more weakly ([2]; lowest intensity of the three DNAs); binds [3, 8]; binds [4, 8]. “GGCGACTAAGCCGGGC / GATAACAACGCCAGGGCCTCCC / GGGAGGCCCTGGCGTTGCCCGGCTTAGTCGCC [Pho-Flap]”: binds [5].
“GGCGACTAAGCCGGGC / AACGCCAGGGCCTCCC / GGGAGGCCCTGGCGTTGCCCGGCTTAGTCGCC [Pho-dRP]”: binds more weakly [1, 9]; binds more weakly [6]; binds [3, 9]. “GGCGACTAAGCCGGGC / AACGCCAGGGCCTCCC / GGGAGGCCCTGGCGTTGCCCGGCTTAGTCGCC [Pho-dRP]”: binds [4, 9].

For part of these data: Weaker means in comparison with the reference protein, sequence or condition of that experiment. For part of these data: Protein sequences can lack the tags named with them. Construct, isoform or probe ends are uncertain for at least one entry. For part of these data: At least one verdict was read from the data and is not stated in words by the source.
